Values of other authors in US12257292B2, “Enhanced delivery of antioxidants for treatment of central nervous system disorders involving oxidative stress” (Beyond Barriers Therapeutics, Inc., priority 2017, dated 2025).
The name of at least one read-out is uncertain.

Conditions: oral; cited from earlier work

For `CC(=O)N[C@@H](CS)C(=O)O` [NAC, N-acetylcysteine], the “blood brain barrier permeability” value is given as “low”.
